PubChem BioAssay AID1259425 | University of Nebraska Medical Center, 2018

- Purpose: 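Find knockdowns that reproduce the gene expression pattern seen when KSR1 is lost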 (primary screen)
- System: HCT116 human colon cancer cells
- Reagent: siRNA pool against human genes, 50 nM siRNA
- Detection: 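After 50 nM siRNA pool, branched-DNA assay measures six marker transcripts per well, minus blank, normalised to the geometric mean of two housekeeping transcripts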
- Reading the numbers: BNIP3L mRNA: higher = more BNIP3L transcript after knockdown
Here is a random part of about 14,000 reagents. Reagents against one gene are numbered here. Further read-outs or replicates are left out here. Reagent sequences are not shown. Not stated in the record: the time to read-out.

gene	pool no.	BNIP3L mRNA, set 1
GDF9	1	0.0561
YAE1	1	0.142
RAPSN	1	0.0898
AUNIP	1	0.0427
GALNT11	1	0.117
ME3	1	0.0737
NUP210	1	0.181
EIF3G	1	0.136
ZNF117	1	0.122
ZNF117	2	0.328
KPNA3	1	0.0936
PRMT7	1	0.0844
MRE11	1	0.0622
GPT2	1	0.0792
MASP2	1	0.0669
HS1BP3	1	0.168
C4B	1	0.0802
GRP	1	0.061
UBE2N	1	0.0588
PFN1P3	1	0.138
MACROH2A2	1	0.144
WSCD1	1	0.0687
GTF2H4	1	0.134
DSC2	1	0.103
IARS2	1	0.112
TNK2	1	0.0986
RBM41	1	0.0939
KCTD14	1	0.21
DOP1A	1	0.131
ZMYM3	1	0.111
PF4	1	0.0727
IFT88	1	0.0922
SEC24C	1	0.162
CABS1	1	0.14
PDGFA	1	0.181
IMPA1	1	0.0818
XRCC1	1	0.0673
MTMR12	1	0.222
PRKCB	1	0.17
THRSP	1	0.0214
MAEA	1	0.0696
PKIG	1	0.0526
SLC44A4	1	0.219
SPHAR (retired record)	1	0.109
PPWD1	1	0.16
ROBO2	1	0.0591
SIPA1L3	1	0.083
MAP1LC3A	1	0.19
TBC1D22A	1	0.0958
IPO11	1	0.0894
HINT2	1	0.28
CCNK	1	0.0925
PTH2R	1	0.191
PUS7	1	0.0739
TXLNGY	1	0.122
GALNT16	1	0.12
AADAC	1	0.217
AUH	1	0.0604
COX4I2	1	0.167
STX7	1	0.0922
CAPRIN1	1	0.0364
FAM193A	1	0.101
FIGN	1	0.0863
